Measurements taken from PubChem BioAssay AID493014 (National Center for Advancing Translational Sciences (NCATS), 2011).
The other results are listed elsewhere or left out. These are further read-outs of the screen, such as a control signal, another cell line or another target. No call is given for them. The list favours compounds with an active or inconclusive main result. Potencies come from curve fits of mixed quality, noted in brackets.

Assay: qHTS Assay to Find Inhibitors of Chronic Active B-Cell Receptor Signaling
Conditions: ABC-DLBCL IkBa-CBG/CBR reporter, luminescence ratio (green luciferase fused to IkBa over red control in TMD8 lymphoma cells), 4 h
In short: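 Cell line TMD8 (human ABC DLBCL), stably expressing tet-inducible CBG68-IkBa fusion and CBR; IMDM/0.5% FBS; cpd up to 46 uM; dox induction, 4 h, 37C/5% CO2; dual luminescence; green/red ratio; MG132 control.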

[1] = measured here: CBR red luminescence, cell number
[2] = measured here: IkBa-CBG green luminescence

Row | SMILES | AC50 [1] | AC50 [2]
1 | O=C1CC(N(CCc2ccccc2)C(=S)Nc2ccccc2)C(=O)N1c1ccc(Br)cc1 (stereo unspecified) | 20.6 µM [falling, partial curve, poor fit] | –
2 | CCOc1ccc(N2C(=O)N(Cc3c(F)cccc3Cl)c3ccccc3S2(=O)=O)cc1 | 15.8 µM [falling, single point] | –
3 | Clc1ccc(C(c2ccccc2)N2CCNCC2)cc1 (stereo unspecified) | 20.6 µM [falling, single point] | –
4 | COCCn1c(SCc2cnc(-c3ccccc3)s2)nnc1-c1ccncc1 | 0.501 µM [falling, partial curve, poor fit] | –
5 | NS(=O)(=O)c1ccc(CCNC(=O)C(=O)NCC2OCCN2S(=O)(=O)c2cc(F)ccc2F)cc1 (stereo unspecified) | 2.24 µM [rising, full curve] | –
6 | C/C(=N\NC(=O)c1ccncc1)c1ccc(N2CCOCC2)cc1 | 29.1 µM [falling, single point] | –
7 | C[C@H](NC(=O)c1ccccc1)C(=O)Nc1nc(-c2ccccn2)cs1 | 3.98 µM [falling, full curve, poor fit] | –
8 | COc1ccc(Cn2c(SCC(N)=O)nc3c(sc4ccccc43)c2=O)cc1 | 3.55 µM [rising, partial curve, poor fit] | –
9 | COC(=O)c1cc(C)sc1NC(=O)C1C2C=CC(CC2)C1C(=O)O (stereo unspecified) | 8.2 µM [rising, partial curve, poor fit] | –
10 | N#CCn1cnc2c(oc3ccccc32)c1=O | 11.2 µM [rising, partial curve, poor fit] | –
11 | COc1ccc(C(=O)Nc2ccccc2C(=O)N/N=C/c2ccco2)cc1 | 9.2 µM [falling, partial curve] | –
12 | CCN1CCN(S(=O)(=O)c2cccs2)CC1 | 0.58 µM [falling, partial curve, poor fit] | –
13 | CC(C)(O)c1cc2ccccc2c(=O)o1 | 4.11 µM [rising, full curve] | –
14 | COc1ccc(S(=O)(=O)N(C)C[C@H]2Oc3ccc(NS(=O)(=O)c4ccc(F)cc4)cc3C(=O)N([C@H](C)CO)C[C@@H]2C)cc1 | 5.8 µM [rising, partial curve] | –
15 | O=C(COC(=O)c1ccc(O)cc1)Nc1cccc(S(=O)(=O)NC2=NCCC2)c1 | 2.91 µM [rising, partial curve, poor fit] | –
16 | Cc1c(NC(=O)COC(=O)c2cc(-c3ccc(-c4ccccc4)cc3)nc3ccccc23)c(=O)n(-c2ccccc2)n1C | 4.11 µM [rising, single point] | 25.9 µM [rising, partial curve, poor fit]
17 | COc1ccc(CCN(C)C(=O)COc2ccc(C(=O)c3ccccc3)cc2)cc1OC | 29.1 µM [rising, single point] | –
18 | CCN(CC)CCn1c2c(c(SCC(=O)Nc3nc(C)cs3)nc1=O)CCC2 | 20.6 µM [falling, single point] | –
19 | O=C(O)CCCCCNC(=O)Nc1ccc2c(c1)OCCO2 | 2.59 µM [falling, full curve] | –
20 | O=C(CCC1N=C2c3ccccc3N=C(SCc3ccc(Cl)cc3)N2C1=O)NCc1ccco1 (stereo unspecified) | 6.31 µM [rising, single point] | –
21 | CCOC(=O)N1CCC(NC(=O)CS(=O)(=O)Cc2nc(-c3cccc(Cl)c3)oc2C)CC1 | 35.5 µM [rising, single point] | –

One compound at a time (already shown). Order of values: AC50 [1]	AC50 [2]
CCOC(=O)N1CCC(NC(=O)CS(=O)(=O)Cc2nc(-c3cccc(Cl)c3)oc2C)CC1 as listed: 35.5 µM [rising, single point]	–
C/C(=N\NC(=O)c1ccncc1)c1ccc(N2CCOCC2)cc1 as listed: 29.1 µM [falling, single point]	–
COc1ccc(C(=O)Nc2ccccc2C(=O)N/N=C/c2ccco2)cc1 as listed: 9.2 µM [falling, partial curve]	–

Additional results

Row | SMILES | AC50 [1] | AC50 [2]
22 | CC1(C)Oc2ccc(C(=O)N3CCOCC3)cc2N(CC(=O)Nc2ccccc2)C1=O | 0.103 µM [rising, full curve, poor fit] | –
23 | O=C(Cn1nnc(-c2cccs2)n1)NCc1ccco1 | 0.562 µM [rising, full curve, poor fit] | –
24 | CC1CCCCN1C(=O)CSc1nc(C2CC2)nc2ccccc12 (stereo unspecified) | 6.31 µM [falling, partial curve, poor fit] | –
25 | CCOC(=O)c1[nH]c2ccccc2c1NC(=S)Nc1ccccc1 | 29.1 µM [falling, single point] | –
26 | CC(C)(C)c1ccc(C(=O)Nc2cccc([N+](=O)[O-])c2)cc1 | 29.1 µM [falling, single point] | –
27 | O=C(Nc1ccccc1C(=O)Nc1ccc(Br)cn1)c1cccc([N+](=O)[O-])c1 | 11.2 µM [falling, partial curve] | –
28 | COc1ccc(-c2oc(NC(=O)CCl)c(C#N)c2-c2ccc(OC)cc2)cc1 | 29.1 µM [falling, single point] | –
29 | NC(=O)c1ccccc1OCC(=O)Nc1ccc(Cl)c(Cl)c1 | 14.1 µM [falling, single point] | –
30 | CC(O)c1nc2c(c(=O)n(C)c(=O)n2C)n1C (stereo unspecified) | 12.6 µM [falling, single point] | –
31 | Cc1cc(C(=O)Nc2cccc(O)c2)co1 | 16.4 µM [falling, partial curve, poor fit] | –
32 | CN(c1cccc2cccnc12)S(=O)(=O)c1ccccc1 | 35.5 µM [falling, single point] | –
33 | CCCCC(NC(C)=O)c1nc2ccccc2n1CCC (stereo unspecified) | 3.26 µM [falling, partial curve, poor fit] | –
34 | C(=N\n1cnc2ccccc21)/c1cccnc1 | 0.00517 µM [rising, full curve, poor fit] | –
35 | O=C(NNS(=O)(=O)c1ccc(F)cc1)c1ccc2c(c1)OCO2 | 11.2 µM [falling, single point] | –
36 | COC(=O)C(Cc1ccc(O)cc1)NC(=O)CCNC(=O)c1ccco1 (stereo unspecified) | 2.82 µM [falling, partial curve, poor fit] | –
37 | COc1ccc(Cl)c(NC(=O)Cn2nnc(-c3ccccc3N)n2)c1 | 10 µM [falling, partial curve, poor fit] | –
38 | COc1ccc(C(=O)Nc2ccccc2C(=O)Nc2ccncc2)cc1 | 14.1 µM [falling, partial curve] | –
39 | Cc1ccccc1CNC(=O)Cn1ccc2cc(S(=O)(=O)N3CCCCCC3)ccc21 | 25.1 µM [falling, single point] | –
40 | O=C(c1ccc2c(c1)OCO2)N(CC1CCCO1)C1(C(=O)NC2CCCCC2)CCCCC1 (stereo unspecified) | 29.1 µM [falling, single point] | 25.9 µM [rising, partial curve, poor fit]
41 | CCCCCCCOc1ccc(C2(C)NC(=O)NC2=O)cc1 (stereo unspecified) | 35.5 µM [rising, single point] | –
42 | O=C(Cc1ccc(Cl)cc1)NCC(c1cccs1)S(=O)(=O)c1ccc(F)cc1 (stereo unspecified) | 12.6 µM [falling, single point] | –

As entered above:
Under AC50 [1], `COc1ccc(-c2oc(NC(=O)CCl)c(C#N)c2-c2ccc(OC)cc2)cc1` has 29.1 µM [falling, single point]
Under AC50 [1], `CC(O)c1nc2c(c(=O)n(C)c(=O)n2C)n1C` (stereo unspecified) has 12.6 µM [falling, single point]

Continued.

Row | SMILES | AC50 [1] | AC50 [2]
43 | COc1ccc(OC)c(C(=O)CN2CCN(S(=O)(=O)c3ccc(Br)cc3)CC2)c1 | 18.4 µM [rising, partial curve] | 20.6 µM [falling, single point]
44 | Cc1cc(C)nc(Nc2n[nH]c(-c3ccccc3Br)n2)n1 | 0.366 µM [falling, full curve, poor fit] | –
45 | COC(=O)c1ccc(N2CCCCC2)c(N)c1 | 10 µM [falling, partial curve, poor fit] | –
46 | CC(C)c1ccc(NC(=O)N2CCc3ccccc3C2)cc1 | 1.41 µM [rising, partial curve] | –
47 | Cc1cc(C)n(CCc2nc(-c3ccc(C)o3)cs2)n1 | 29.1 µM [falling, partial curve, poor fit] | –
48 | O=c1[nH]c(CSc2nc3ccccc3o2)nc2c1cnn2-c1ccccc1 | 3.55 µM [rising, partial curve, poor fit] | –
49 | CNS(=O)(=O)c1ccc2nc(NC(=O)/C=C/c3ccco3)sc2c1 | 0.708 µM [rising, full curve, poor fit] | –
50 | COC(=O)c1cc(C)ccc1OCc1ccc([N+](=O)[O-])cc1 | 35.5 µM [rising, partial curve, poor fit] | –
51 | Cc1nc(CC(=O)Nc2nc(C(C)(C)C)cs2)cs1 | 35.5 µM [falling, single point] | –
52 | C#CCOCCOCCOCCNc1nc(N2CCN(C(=O)[C@H](C(C)C)n3cc(CCO)nn3)CC2)nc(N2CCN(C(=O)[C@H]([C@@H](C)CC)n3cc(CCCN=C(N)N)nn3)CC2)n1 | 0.231 µM [rising, full curve, poor fit] | 16.4 µM [falling, partial curve]
53 | Cc1ccc(S(=O)(=O)NN2C(=O)/C(=C/c3cccc(F)c3)SC2=S)cc1 | 20 µM [falling, partial curve, poor fit] | –
54 | O=C(Cc1ccc(F)cc1)Nc1ccc(S(=O)(=O)N2CCCCC2)cc1 | 10 µM [rising, partial curve, poor fit] | –
55 | CC(=O)Nc1c(C)nn(-c2ccc([N+](=O)[O-])cc2)c1C | 12.6 µM [rising, partial curve] | –
56 | CC(=O)c1ccc(NC(=O)C(C)OC(=O)c2ccc(NS(=O)(=O)c3ccc(F)c(F)c3)cc2)cc1 (stereo unspecified) | 25.9 µM [falling, single point] | –
57 | O=S(=O)(Nc1ccc(F)cc1Cl)c1ccc(-c2cnc(C3CC3)o2)cc1 | 17.8 µM [rising, single point] | 15.8 µM [falling, single point]
58 | COc1ccc(-n2nc([N+](=O)[O-])c(=NCCCN3CCCC3=O)n2O)cc1 | 35.5 µM [rising, single point] | –
59 | COc1ccc(-n2cccc2C=O)cc1 | 23.1 µM [rising, partial curve] | –
60 | CCOc1ccc(CCNS(=O)(=O)c2cccc3nsnc23)cc1OCC | 0.291 µM [rising, partial curve, poor fit] | –
61 | N#CCSc1ccc(-c2nc3ccccc3[nH]2)cn1 | 15.8 µM [falling, partial curve, poor fit] | –
